Laboratory results from publication PMC7005485.
These are yes or no findings as the source states them, for the method shown. Binding seen in cells or lysates may run through a third protein. Some results given as binding are weak or reduced against the parent protein; the word gives no strength.

Amino acid sequences for entries named in this document (tags omitted).
UniProt Q13526: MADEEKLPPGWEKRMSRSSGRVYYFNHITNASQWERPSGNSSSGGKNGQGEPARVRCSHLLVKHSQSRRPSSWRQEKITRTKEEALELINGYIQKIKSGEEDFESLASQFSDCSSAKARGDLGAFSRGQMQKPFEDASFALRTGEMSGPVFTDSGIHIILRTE
UniProt P03146: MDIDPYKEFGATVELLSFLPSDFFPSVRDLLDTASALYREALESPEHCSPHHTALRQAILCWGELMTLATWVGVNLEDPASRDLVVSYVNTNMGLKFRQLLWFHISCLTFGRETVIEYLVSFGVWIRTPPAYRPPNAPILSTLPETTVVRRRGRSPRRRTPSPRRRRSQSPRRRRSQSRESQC

Experiments:
[1] = molecular target: GST-Pin1 (peptidyl-prolyl cis-trans isomerase NIMA-interacting 1) (UniProt Q13526); test: pull-down; GST, GST-Pin1 or GST-Pin1W34A on glutathione-agarose beads incubated with cell lysate at 4°C for 3 h in GST pull-down buffer (50 mM HEPES pH 7.4, 200 mM NaCl, 10% glycerol, 1% Triton X-100); cells treated with 100 nM bafilomycin A1 and 4 mM NH4Cl for 15 h before harvest; in some panels cells treated with roscovitine (50 uM, 15 h) or expressing HT-PDP2; immunoblot; only the target purified
[2] = molecular target: HBc of stably HBV-producing HepG2.2.15.7 cells (hepatitis B virus) (UniProt P03146); test: co-IP; HepG2.2.15.7 cell lysates immunoprecipitated with anti-HBc or non-immunized IgG; immunoblot with anti-Pin1 or anti-HBc

| Substance | binding [1] | binding [2] |
| --- | --- | --- |
| HBc of stably HBV-producing HepG2.2.15.7 cells (from UniProt P03146 1-183) | binds | – |
| endogenous Pin1 (from UniProt Q13526 1-163) (enzyme) | – | binds |
